Values from PubChem BioAssay AID652272 (Drosophila RNAi Screening Center, 2013).

- Test: 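Genome-wide knock-down search for components of Hedgehog signalling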 (primary screen)
- Cells: Drosophila clone 8 (Cl8) cells
- Reagents: long dsRNA against Drosophila genes
- Read-out: 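Firefly light from a Hedgehog-responsive ptc promoter reporter and Renilla reference light, both read on a plate reader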
- Reading the numbers: firefly Hh reporter signal: higher = more ptc reporter light; Renilla reference signal: higher = more Renilla control light
- Active means: 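Hit when the z-score averaged over two replicates is under -2 or over +3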
- Meaning of the calls: active = hit: reporter lowered or raised; inactive = not a hit
The screen tested about 21,000 reagents; below is a random part of those that have a named target and a result. Of all reagents, 503 (2.4%) are marked active. 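Raw plate light values, not normalised; calls rest on replicate z-scores that were not deposited; hits include reporter decreases as well as increases.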 Unmarked entries are inactive. Reagent sequences are not shown. Not stated in the record: the amount of reagent, the time to read-out.

TwdlR [DRSC14736]
- firefly Hh reporter signal, replicate 1: 96955
- firefly Hh reporter signal, replicate 2: 1.00e5
- Renilla reference signal, replicate 1: 2672
- Renilla reference signal, replicate 2: 3224

GstE14 [DRSC06881]
- firefly Hh reporter signal, replicate 1: 1.03e5
- firefly Hh reporter signal, replicate 2: 56201
- Renilla reference signal, replicate 1: 3137
- Renilla reference signal, replicate 2: 4839

CG6066 [DRSC15959]
- firefly Hh reporter signal, replicate 1: 1.57e5
- firefly Hh reporter signal, replicate 2: 1.57e5
- Renilla reference signal, replicate 1: 5137
- Renilla reference signal, replicate 2: 4512

cn [DRSC07594]
- firefly Hh reporter signal, replicate 1: 73536
- firefly Hh reporter signal, replicate 2: 42519
- Renilla reference signal, replicate 1: 1645
- Renilla reference signal, replicate 2: 4528

Or85f [DRSC16769]
- firefly Hh reporter signal, replicate 1: 77648
- firefly Hh reporter signal, replicate 2: 84400
- Renilla reference signal, replicate 1: 2337
- Renilla reference signal, replicate 2: 2609

brv3 [DRSC18657]
- firefly Hh reporter signal, replicate 1: 56960
- firefly Hh reporter signal, replicate 2: 1.69e5
- Renilla reference signal, replicate 1: 1719
- Renilla reference signal, replicate 2: 7444

alpha4GT1 [DRSC00488]
- firefly Hh reporter signal, replicate 1: 87079
- firefly Hh reporter signal, replicate 2: 93849
- Renilla reference signal, replicate 1: 4496
- Renilla reference signal, replicate 2: 4253

CG12917 [DRSC06231]
- firefly Hh reporter signal, replicate 1: 87728
- firefly Hh reporter signal, replicate 2: 52954
- Renilla reference signal, replicate 1: 2633
- Renilla reference signal, replicate 2: 4754

Polr3B [DRSC07536]
- firefly Hh reporter signal, replicate 1: 61345
- firefly Hh reporter signal, replicate 2: 49163
- Renilla reference signal, replicate 1: 2992
- Renilla reference signal, replicate 2: 1994

CG4707 [DRSC04483]
- firefly Hh reporter signal, replicate 1: 98040
- firefly Hh reporter signal, replicate 2: 50435
- Renilla reference signal, replicate 1: 3500
- Renilla reference signal, replicate 2: 2048

CG8910 [DRSC07414]
- firefly Hh reporter signal, replicate 1: 65380
- firefly Hh reporter signal, replicate 2: 37831
- Renilla reference signal, replicate 1: 2112
- Renilla reference signal, replicate 2: 3475

robl [DRSC07674]
- firefly Hh reporter signal, replicate 1: 1.11e5
- firefly Hh reporter signal, replicate 2: 74499
- Renilla reference signal, replicate 1: 2892
- Renilla reference signal, replicate 2: 5168

Single entries from the list:
Result for TwdlR [DRSC14736] under “Renilla reference signal, replicate 1”: 2672
CG12917 [DRSC06231], Renilla reference signal, replicate 1 = 2633
